{"source": "PubChem BioAssay AID743121 | NCATS | 2013", "assay": "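Partners whose loss is lethal together with topoisomerase I blockade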 (primary screen)", "system": "MDA-MB-231 cells, a human breast cancer line", "reagent": "single siRNA against human genes, 20 nM siRNA (0.8 pmol per well)", "time to read-out": "120 h (drug added 48 h after transfection, read 72 h later)", "treatment": "camptothecin 20 nM (about EC30) for 72 h; vehicle 0.1% DMSO in parallel plates", "measured": "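CellTiter-Glo ATP signal, scaled to control siRNA as percent viability; sensitisation given as log2 of untreated divided by camptothecin-treated viability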", "reading the numbers": "log2 vehicle/camptothecin viability: higher = stronger sensitisation to camptothecin", "rule for the call": "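Each gene scored by redundant siRNA activity (RSA) over its individual siRNA ratios; a gene is called active at p < 0.001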", "note": "This is a random part of about 26,000 reagents tested. 167 of them (0.63%) were called active. 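Calls are per gene from RSA p-values that are not deposited; an individual active-marked siRNA can sensitise only weakly.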 The numbers tell different reagents against one gene apart. Further read-outs or replicates are left out here. No sequences are given here."}
The opening 6 records, ahead of the listing:
{"gene": "EVI5L (ecotropic viral integration site 5 like)", "reagent": 1, "log2 vehicle/camptothecin viability": -0.268, "activity call": "inactive"}
{"gene": "EVI5L (ecotropic viral integration site 5 like)", "reagent": 2, "log2 vehicle/camptothecin viability": -0.225, "activity call": "inactive"}
{"gene": "EVI5L (ecotropic viral integration site 5 like)", "reagent": 3, "log2 vehicle/camptothecin viability": -0.256, "activity call": "inactive"}
{"gene": "EVI5L (ecotropic viral integration site 5 like)", "reagent": 4, "log2 vehicle/camptothecin viability": -0.325, "activity call": "inactive"}
{"gene": "AKAP1 (A-kinase anchoring protein 1)", "reagent": 1, "log2 vehicle/camptothecin viability": -0.0367, "activity call": "inactive"}
{"gene": "AKAP1 (A-kinase anchoring protein 1)", "reagent": 2, "log2 vehicle/camptothecin viability": 0.0483, "activity call": "inactive"}

The listing, from the start:
{"gene": "EVI5L (ecotropic viral integration site 5 like)", "reagent": 1, "log2 vehicle/camptothecin viability": -0.268, "activity call": "inactive"}
{"gene": "EVI5L (ecotropic viral integration site 5 like)", "reagent": 2, "log2 vehicle/camptothecin viability": -0.225, "activity call": "inactive"}
{"gene": "EVI5L (ecotropic viral integration site 5 like)", "reagent": 3, "log2 vehicle/camptothecin viability": -0.256, "activity call": "inactive"}
{"gene": "EVI5L (ecotropic viral integration site 5 like)", "reagent": 4, "log2 vehicle/camptothecin viability": -0.325, "activity call": "inactive"}
{"gene": "AKAP1 (A-kinase anchoring protein 1)", "reagent": 1, "log2 vehicle/camptothecin viability": -0.0367, "activity call": "inactive"}
{"gene": "AKAP1 (A-kinase anchoring protein 1)", "reagent": 2, "log2 vehicle/camptothecin viability": 0.0483, "activity call": "inactive"}
{"gene": "AKAP1 (A-kinase anchoring protein 1)", "reagent": 3, "log2 vehicle/camptothecin viability": -0.349, "activity call": "inactive"}
{"gene": "AKAP1 (A-kinase anchoring protein 1)", "reagent": 4, "log2 vehicle/camptothecin viability": -0.00448, "activity call": "inactive"}
{"gene": "RORA (RAR related orphan receptor A)", "reagent": 1, "log2 vehicle/camptothecin viability": -0.0243, "activity call": "inactive"}
{"gene": "RORA (RAR related orphan receptor A)", "reagent": 2, "log2 vehicle/camptothecin viability": 0.00669, "activity call": "inactive"}
{"gene": "RORA (RAR related orphan receptor A)", "reagent": 3, "log2 vehicle/camptothecin viability": -0.0788, "activity call": "inactive"}
{"gene": "RORA (RAR related orphan receptor A)", "reagent": 4, "log2 vehicle/camptothecin viability": -0.00797, "activity call": "inactive"}
{"gene": "ATP1A2 (ATPase Na+/K+ transporting subunit alpha 2)", "reagent": 1, "log2 vehicle/camptothecin viability": 0.132, "activity call": "inactive"}
{"gene": "ATP1A2 (ATPase Na+/K+ transporting subunit alpha 2)", "reagent": 2, "log2 vehicle/camptothecin viability": 0.0328, "activity call": "inactive"}
{"gene": "ATP1A2 (ATPase Na+/K+ transporting subunit alpha 2)", "reagent": 3, "log2 vehicle/camptothecin viability": -0.402, "activity call": "inactive"}
{"gene": "ATP1A2 (ATPase Na+/K+ transporting subunit alpha 2)", "reagent": 4, "log2 vehicle/camptothecin viability": -0.233, "activity call": "inactive"}
{"gene": "USP12 (ubiquitin specific peptidase 12)", "reagent": 1, "log2 vehicle/camptothecin viability": -0.101, "activity call": "inactive"}
{"gene": "USP12 (ubiquitin specific peptidase 12)", "reagent": 2, "log2 vehicle/camptothecin viability": -0.537, "activity call": "inactive"}
{"gene": "USP12 (ubiquitin specific peptidase 12)", "reagent": 3, "log2 vehicle/camptothecin viability": -0.316, "activity call": "inactive"}
{"gene": "USP12 (ubiquitin specific peptidase 12)", "reagent": 4, "log2 vehicle/camptothecin viability": 0.0322, "activity call": "inactive"}
{"gene": "NAIP (NLR family apoptosis inhibitory protein)", "reagent": 1, "log2 vehicle/camptothecin viability": -0.206, "activity call": "inactive"}
{"gene": "NAIP (NLR family apoptosis inhibitory protein)", "reagent": 2, "log2 vehicle/camptothecin viability": -0.0504, "activity call": "inactive"}
{"gene": "NAIP (NLR family apoptosis inhibitory protein)", "reagent": 3, "log2 vehicle/camptothecin viability": 0.187, "activity call": "inactive"}
{"gene": "NAIP (NLR family apoptosis inhibitory protein)", "reagent": 4, "log2 vehicle/camptothecin viability": 0.083, "activity call": "inactive"}
{"gene": "TRIM7 (tripartite motif containing 7)", "reagent": 1, "log2 vehicle/camptothecin viability": 0.0184, "activity call": "inactive"}
{"gene": "TRIM7 (tripartite motif containing 7)", "reagent": 2, "log2 vehicle/camptothecin viability": -0.426, "activity call": "inactive"}
{"gene": "TRIM7 (tripartite motif containing 7)", "reagent": 3, "log2 vehicle/camptothecin viability": 0.276, "activity call": "inactive"}
{"gene": "TRIM7 (tripartite motif containing 7)", "reagent": 4, "log2 vehicle/camptothecin viability": -0.233, "activity call": "inactive"}
{"gene": "TRIM7 (tripartite motif containing 7)", "reagent": 5, "log2 vehicle/camptothecin viability": -0.0329, "activity call": "inactive"}
{"gene": "TRIM7 (tripartite motif containing 7)", "reagent": 6, "log2 vehicle/camptothecin viability": -0.341, "activity call": "inactive"}
{"gene": "TRIM7 (tripartite motif containing 7)", "reagent": 7, "log2 vehicle/camptothecin viability": -0.143, "activity call": "inactive"}
{"gene": "TRIM7 (tripartite motif containing 7)", "reagent": 8, "log2 vehicle/camptothecin viability": -0.369, "activity call": "inactive"}
{"gene": "DTX4 (deltex E3 ubiquitin ligase 4)", "reagent": 1, "log2 vehicle/camptothecin viability": 0.434, "activity call": "inactive"}
{"gene": "DTX4 (deltex E3 ubiquitin ligase 4)", "reagent": 2, "log2 vehicle/camptothecin viability": -0.36, "activity call": "inactive"}
{"gene": "DTX4 (deltex E3 ubiquitin ligase 4)", "reagent": 3, "log2 vehicle/camptothecin viability": 0.0903, "activity call": "inactive"}
{"gene": "DTX4 (deltex E3 ubiquitin ligase 4)", "reagent": 4, "log2 vehicle/camptothecin viability": 0.938, "activity call": "inactive"}
{"gene": "SLC2A4", "reagent": 1, "log2 vehicle/camptothecin viability": -0.218, "activity call": "inactive"}
{"gene": "SLC2A4", "reagent": 2, "log2 vehicle/camptothecin viability": -0.481, "activity call": "inactive"}
{"gene": "SLC2A4", "reagent": 3, "log2 vehicle/camptothecin viability": -0.628, "activity call": "inactive"}
{"gene": "SLC2A4", "reagent": 4, "log2 vehicle/camptothecin viability": -0.205, "activity call": "inactive"}
{"gene": "ATP2A3", "reagent": 1, "log2 vehicle/camptothecin viability": 0.185, "activity call": "inactive"}
{"gene": "ATP2A3", "reagent": 2, "log2 vehicle/camptothecin viability": 0.0196, "activity call": "inactive"}
{"gene": "ATP2A3", "reagent": 3, "log2 vehicle/camptothecin viability": -0.32, "activity call": "inactive"}
{"gene": "ATP2A3", "reagent": 4, "log2 vehicle/camptothecin viability": -0.0848, "activity call": "inactive"}
{"gene": "HRK (harakiri, BCL2 interacting protein)", "reagent": 1, "log2 vehicle/camptothecin viability": -0.223, "activity call": "inactive"}
{"gene": "HRK (harakiri, BCL2 interacting protein)", "reagent": 2, "log2 vehicle/camptothecin viability": -0.123, "activity call": "inactive"}
{"gene": "HRK (harakiri, BCL2 interacting protein)", "reagent": 3, "log2 vehicle/camptothecin viability": -0.553, "activity call": "inactive"}
{"gene": "HRK (harakiri, BCL2 interacting protein)", "reagent": 4, "log2 vehicle/camptothecin viability": -0.216, "activity call": "inactive"}
